{"source": "PubChem BioAssay AID504808 (Drosophila RNAi Screening Center, 2011)", "screen": "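Chromatin factors that keep E2F targets switched off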 (primary screen)", "system": "Drosophila S2 cells", "reagent": "long dsRNA against Drosophila genes", "detection": "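Dual luciferase plate measurements; E2F-specific signal taken as firefly over Renilla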", "scale": "E2F firefly: higher = more E2F reporter activity; Renilla normaliser: higher = more normaliser reporter signal", "active means": "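Called active if the normalised E2F reporter went up by over 50%; the cutoff is arbitrary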", "note": "In all, the deposit lists about 21,000 reagents; below is a random part of those with a known target gene and a result. Of all reagents, 18 (0.084%) were called active. 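Raw counts without plate normalisation, one of two replicates; the ratio scores behind the calls were not deposited.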 Entries without a mark were called inactive. A plus sign joins genes that one reagent is predicted to hit. No sequences are given here. Not stated in the record: the amount of reagent, the time to read-out."}
{"gene": "MED10", "amplicon": "DRSC10474", "E2F firefly, rep 1": 1.10e5, "Renilla normaliser, rep 1": 7272}
{"gene": "Spt", "amplicon": "DRSC07123", "E2F firefly, rep 1": 1.39e5, "Renilla normaliser, rep 1": 4829}
{"gene": "spn-F", "amplicon": "DRSC14475", "E2F firefly, rep 1": 1620, "Renilla normaliser, rep 1": 992}
{"gene": "Ir51a", "amplicon": "DRSC06256", "E2F firefly, rep 1": 1.03e5, "Renilla normaliser, rep 1": 4199}
{"gene": "CG12290", "amplicon": "DRSC14497", "E2F firefly, rep 1": 1764, "Renilla normaliser, rep 1": 968}
{"gene": "VAChT", "amplicon": "DRSC13311", "E2F firefly, rep 1": 78541, "Renilla normaliser, rep 1": 2407}
{"gene": "VAChT", "amplicon": "DRSC16608", "E2F firefly, rep 1": 80369, "Renilla normaliser, rep 1": 3303}
{"gene": "squ", "amplicon": "DRSC01549", "E2F firefly, rep 1": 1.45e5, "Renilla normaliser, rep 1": 5445}
{"gene": "CG13070", "amplicon": "DRSC09953", "E2F firefly, rep 1": 1.55e5, "Renilla normaliser, rep 1": 7678}
{"gene": "aph-1", "amplicon": "DRSC00547", "E2F firefly, rep 1": 85921, "Renilla normaliser, rep 1": 3593}
{"gene": "CG33771", "amplicon": "DRSC11718", "E2F firefly, rep 1": 42648, "Renilla normaliser, rep 1": 3985}
{"gene": "CG31122", "amplicon": "DRSC14787", "E2F firefly, rep 1": 64417, "Renilla normaliser, rep 1": 3992}
{"gene": "CG31122", "amplicon": "DRSC16286", "E2F firefly, rep 1": 1.41e5, "Renilla normaliser, rep 1": 7524}
{"gene": "Slob", "amplicon": "DRSC02296", "E2F firefly, rep 1": 1.44e5, "Renilla normaliser, rep 1": 4911}
{"gene": "elg1", "amplicon": "DRSC10229", "E2F firefly, rep 1": 69973, "Renilla normaliser, rep 1": 3623}
{"gene": "Ulp1", "amplicon": "DRSC19339", "E2F firefly, rep 1": 1.52e5, "Renilla normaliser, rep 1": 5322}

A few values from above:
Under “Renilla normaliser, rep 1”, Slob [DRSC02296] reads 4911
Ulp1 [DRSC19339], Renilla normaliser, rep 1 → 5322
Value for CG12290 [DRSC14497] in “E2F firefly, rep 1”: 1764

The listing continues:
{"gene": "CG5592", "amplicon": "DRSC10524", "E2F firefly, rep 1": 92685, "Renilla normaliser, rep 1": 3504}
{"gene": "CG12106", "amplicon": "DRSC17805", "E2F firefly, rep 1": 7485, "Renilla normaliser, rep 1": 852}
{"gene": "CG4119", "amplicon": "DRSC17741", "E2F firefly, rep 1": 7022, "Renilla normaliser, rep 1": 744}
{"gene": "Tcs6 + PIG-P", "amplicon": "DRSC13742", "E2F firefly, rep 1": 85882, "Renilla normaliser, rep 1": 2547}
{"gene": "Tcs6 + PIG-P", "amplicon": "DRSC14893", "E2F firefly, rep 1": 1.04e5, "Renilla normaliser, rep 1": 5794}
{"gene": "TP53INP", "amplicon": "DRSC08178", "E2F firefly, rep 1": 83887, "Renilla normaliser, rep 1": 3651}
{"gene": "CG10341", "amplicon": "DRSC02040", "E2F firefly, rep 1": 75963, "Renilla normaliser, rep 1": 3219}
{"gene": "Poxn", "amplicon": "DRSC05589", "E2F firefly, rep 1": 1.36e5, "Renilla normaliser, rep 1": 4621}
{"gene": "Poxn", "amplicon": "DRSC07512", "E2F firefly, rep 1": 1.52e5, "Renilla normaliser, rep 1": 4825}
{"gene": "CG33298", "amplicon": "DRSC02210", "E2F firefly, rep 1": 1.50e5, "Renilla normaliser, rep 1": 5153}
{"gene": "CG33298", "amplicon": "DRSC02672", "E2F firefly, rep 1": 87912, "Renilla normaliser, rep 1": 3357}
{"gene": "Nmda1", "amplicon": "DRSC07479", "E2F firefly, rep 1": 2942, "Renilla normaliser, rep 1": 188}
{"gene": "pcx", "amplicon": "DRSC18186", "E2F firefly, rep 1": 1.06e5, "Renilla normaliser, rep 1": 5141}
{"gene": "pcx", "amplicon": "DRSC18187", "E2F firefly, rep 1": 1.05e5, "Renilla normaliser, rep 1": 4987}
{"gene": "pcx", "amplicon": "DRSC18188", "E2F firefly, rep 1": 95581, "Renilla normaliser, rep 1": 5098}
{"gene": "pcx", "amplicon": "DRSC18189", "E2F firefly, rep 1": 99138, "Renilla normaliser, rep 1": 5224}
{"gene": "pcx", "amplicon": "DRSC18190", "E2F firefly, rep 1": 1.12e5, "Renilla normaliser, rep 1": 5400}
{"gene": "pcx", "amplicon": "DRSC18816", "E2F firefly, rep 1": 1963, "Renilla normaliser, rep 1": 7977}
{"gene": "nbs", "amplicon": "DRSC11373", "E2F firefly, rep 1": 1.27e5, "Renilla normaliser, rep 1": 6709}
{"gene": "CG17068", "amplicon": "DRSC20545", "E2F firefly, rep 1": 1.57e5, "Renilla normaliser, rep 1": 5608}
